{"source": "patent US20240300940A1", "about": "“Phenothiazinyl Compounds and Uses” (Prosetta Biosciences, Inc., priority 2023, published 2024)", "system": "NorA overexpressing S. aureus", "type": "cell-based", "conditions": "NorA overexpression induced by EtBr", "data": [{"smiles": "O=C(O)c1cn(C2CC2)c2cc(N3CCNCC3)c(F)cc2c1=O", "note": "[Ciprofloxacin]", "values": [{"measurement": "effect of NorA efflux pump overexpression on MIC", "result": "affects Ciprofloxacin MIC"}]}]}
